# The list shows a part of the results.
# Protein sequences, listed by entry. Tags and fused reporters are not part of them. Lines headed by an entry give the natural chain unless they say otherwise; changes in a name come on top.
# UniProt Q16587: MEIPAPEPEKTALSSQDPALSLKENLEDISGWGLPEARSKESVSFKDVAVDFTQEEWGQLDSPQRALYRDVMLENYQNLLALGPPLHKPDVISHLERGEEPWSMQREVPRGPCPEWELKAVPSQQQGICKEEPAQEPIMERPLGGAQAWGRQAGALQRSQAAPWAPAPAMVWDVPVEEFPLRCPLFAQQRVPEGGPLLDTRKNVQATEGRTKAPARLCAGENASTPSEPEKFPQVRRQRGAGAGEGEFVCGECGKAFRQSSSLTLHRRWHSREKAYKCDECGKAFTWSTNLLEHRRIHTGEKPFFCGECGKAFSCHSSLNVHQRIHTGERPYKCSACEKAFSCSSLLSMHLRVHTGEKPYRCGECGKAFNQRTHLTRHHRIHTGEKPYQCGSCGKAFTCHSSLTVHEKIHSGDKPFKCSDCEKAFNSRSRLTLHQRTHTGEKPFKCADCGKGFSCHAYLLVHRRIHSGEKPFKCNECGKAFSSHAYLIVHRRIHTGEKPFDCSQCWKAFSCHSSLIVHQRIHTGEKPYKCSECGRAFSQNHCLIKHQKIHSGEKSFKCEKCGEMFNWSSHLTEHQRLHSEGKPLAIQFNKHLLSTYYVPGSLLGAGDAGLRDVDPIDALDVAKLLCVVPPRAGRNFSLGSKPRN
# UniProt A6NFI3: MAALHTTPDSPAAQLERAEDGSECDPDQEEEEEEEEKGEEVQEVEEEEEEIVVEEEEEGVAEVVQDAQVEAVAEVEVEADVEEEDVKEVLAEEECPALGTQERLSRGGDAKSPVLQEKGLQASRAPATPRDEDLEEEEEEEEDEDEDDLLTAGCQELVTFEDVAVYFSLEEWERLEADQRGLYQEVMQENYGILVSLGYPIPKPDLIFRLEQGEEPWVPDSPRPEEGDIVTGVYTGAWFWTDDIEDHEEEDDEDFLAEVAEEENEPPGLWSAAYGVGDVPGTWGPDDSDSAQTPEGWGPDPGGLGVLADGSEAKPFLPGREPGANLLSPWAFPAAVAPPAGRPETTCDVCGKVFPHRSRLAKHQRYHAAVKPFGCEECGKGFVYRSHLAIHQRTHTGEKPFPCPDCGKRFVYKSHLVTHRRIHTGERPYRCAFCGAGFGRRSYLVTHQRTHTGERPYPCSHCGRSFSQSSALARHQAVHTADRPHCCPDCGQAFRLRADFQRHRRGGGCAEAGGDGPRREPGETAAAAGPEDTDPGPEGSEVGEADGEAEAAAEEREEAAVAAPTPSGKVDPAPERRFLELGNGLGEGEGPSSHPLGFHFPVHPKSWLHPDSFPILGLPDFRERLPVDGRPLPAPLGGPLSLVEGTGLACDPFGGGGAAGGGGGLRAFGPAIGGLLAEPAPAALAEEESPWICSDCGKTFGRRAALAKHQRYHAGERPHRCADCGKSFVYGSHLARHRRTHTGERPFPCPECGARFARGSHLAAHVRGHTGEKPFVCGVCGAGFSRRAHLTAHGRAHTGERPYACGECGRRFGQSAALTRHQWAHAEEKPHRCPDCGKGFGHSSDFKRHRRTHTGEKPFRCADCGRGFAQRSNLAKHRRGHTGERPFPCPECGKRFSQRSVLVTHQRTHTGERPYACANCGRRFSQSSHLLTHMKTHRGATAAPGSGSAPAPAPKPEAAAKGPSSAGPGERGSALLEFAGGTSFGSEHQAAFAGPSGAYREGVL
# UniProt Q86YH2: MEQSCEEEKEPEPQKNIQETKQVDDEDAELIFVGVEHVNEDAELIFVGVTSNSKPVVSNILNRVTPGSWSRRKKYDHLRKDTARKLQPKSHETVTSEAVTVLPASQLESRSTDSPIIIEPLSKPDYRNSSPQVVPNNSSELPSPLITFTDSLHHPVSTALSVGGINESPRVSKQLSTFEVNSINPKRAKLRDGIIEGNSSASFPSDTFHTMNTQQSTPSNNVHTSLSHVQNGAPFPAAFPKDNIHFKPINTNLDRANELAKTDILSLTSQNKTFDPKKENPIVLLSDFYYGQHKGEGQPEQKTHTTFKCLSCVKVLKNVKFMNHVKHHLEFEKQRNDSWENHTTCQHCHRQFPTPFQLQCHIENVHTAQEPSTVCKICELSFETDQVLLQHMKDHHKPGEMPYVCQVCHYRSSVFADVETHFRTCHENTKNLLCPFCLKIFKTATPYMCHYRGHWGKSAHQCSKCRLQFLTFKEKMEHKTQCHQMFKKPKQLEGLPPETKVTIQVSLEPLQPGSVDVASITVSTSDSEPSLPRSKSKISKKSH
# UniProt Q96BR6: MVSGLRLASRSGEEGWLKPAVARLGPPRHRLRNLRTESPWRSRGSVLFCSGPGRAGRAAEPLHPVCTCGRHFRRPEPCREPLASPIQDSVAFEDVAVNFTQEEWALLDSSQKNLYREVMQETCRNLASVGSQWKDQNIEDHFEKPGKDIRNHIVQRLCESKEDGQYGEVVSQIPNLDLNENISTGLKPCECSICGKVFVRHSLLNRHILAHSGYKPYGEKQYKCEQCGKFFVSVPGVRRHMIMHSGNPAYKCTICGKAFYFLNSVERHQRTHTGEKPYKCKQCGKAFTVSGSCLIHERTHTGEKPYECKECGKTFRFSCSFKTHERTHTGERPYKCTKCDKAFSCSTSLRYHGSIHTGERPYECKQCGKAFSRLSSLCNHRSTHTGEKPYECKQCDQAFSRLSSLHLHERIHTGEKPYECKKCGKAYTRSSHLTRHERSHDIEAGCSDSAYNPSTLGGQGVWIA
# UniProt Q9Y3S2: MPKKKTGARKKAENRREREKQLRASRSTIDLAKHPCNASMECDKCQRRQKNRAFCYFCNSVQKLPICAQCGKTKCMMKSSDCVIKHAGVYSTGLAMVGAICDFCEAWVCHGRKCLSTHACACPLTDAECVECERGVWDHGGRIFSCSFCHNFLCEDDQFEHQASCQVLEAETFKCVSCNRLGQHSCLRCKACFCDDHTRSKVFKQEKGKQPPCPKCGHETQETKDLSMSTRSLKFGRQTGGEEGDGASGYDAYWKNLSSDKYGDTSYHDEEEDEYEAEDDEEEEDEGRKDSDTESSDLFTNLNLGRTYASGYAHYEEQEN
# UniProt O95229: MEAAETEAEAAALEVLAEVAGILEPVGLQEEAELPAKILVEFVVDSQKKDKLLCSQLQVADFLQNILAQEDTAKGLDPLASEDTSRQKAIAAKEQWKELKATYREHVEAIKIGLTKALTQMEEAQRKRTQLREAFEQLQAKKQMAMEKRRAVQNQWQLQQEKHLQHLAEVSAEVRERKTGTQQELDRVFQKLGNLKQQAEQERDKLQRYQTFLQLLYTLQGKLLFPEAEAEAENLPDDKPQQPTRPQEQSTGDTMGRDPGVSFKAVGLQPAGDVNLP
# UniProt Q16600: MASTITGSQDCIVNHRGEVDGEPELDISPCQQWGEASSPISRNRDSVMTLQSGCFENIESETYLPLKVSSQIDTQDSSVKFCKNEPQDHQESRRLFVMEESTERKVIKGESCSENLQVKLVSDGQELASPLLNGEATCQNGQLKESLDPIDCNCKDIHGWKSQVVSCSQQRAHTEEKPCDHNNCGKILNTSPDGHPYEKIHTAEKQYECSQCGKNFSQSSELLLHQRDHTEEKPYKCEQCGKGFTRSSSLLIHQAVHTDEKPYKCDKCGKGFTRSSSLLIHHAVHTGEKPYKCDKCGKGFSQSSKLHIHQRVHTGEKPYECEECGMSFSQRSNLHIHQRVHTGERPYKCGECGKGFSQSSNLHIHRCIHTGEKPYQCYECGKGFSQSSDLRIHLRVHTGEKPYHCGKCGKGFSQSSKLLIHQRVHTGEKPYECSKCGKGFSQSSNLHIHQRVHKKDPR
# UniProt Q7L945: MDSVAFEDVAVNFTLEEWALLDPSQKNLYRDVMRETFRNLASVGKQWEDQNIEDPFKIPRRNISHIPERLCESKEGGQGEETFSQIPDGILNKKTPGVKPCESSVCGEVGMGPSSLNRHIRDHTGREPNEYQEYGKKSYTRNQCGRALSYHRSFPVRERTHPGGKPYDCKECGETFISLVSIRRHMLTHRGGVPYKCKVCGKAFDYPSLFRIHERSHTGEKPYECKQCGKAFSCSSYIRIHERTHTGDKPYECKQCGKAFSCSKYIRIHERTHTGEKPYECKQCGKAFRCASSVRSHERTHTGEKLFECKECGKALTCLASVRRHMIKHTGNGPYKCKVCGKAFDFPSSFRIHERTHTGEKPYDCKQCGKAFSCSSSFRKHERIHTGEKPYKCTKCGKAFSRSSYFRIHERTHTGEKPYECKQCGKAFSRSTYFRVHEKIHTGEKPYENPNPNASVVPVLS
# UniProt Q9Y4E5: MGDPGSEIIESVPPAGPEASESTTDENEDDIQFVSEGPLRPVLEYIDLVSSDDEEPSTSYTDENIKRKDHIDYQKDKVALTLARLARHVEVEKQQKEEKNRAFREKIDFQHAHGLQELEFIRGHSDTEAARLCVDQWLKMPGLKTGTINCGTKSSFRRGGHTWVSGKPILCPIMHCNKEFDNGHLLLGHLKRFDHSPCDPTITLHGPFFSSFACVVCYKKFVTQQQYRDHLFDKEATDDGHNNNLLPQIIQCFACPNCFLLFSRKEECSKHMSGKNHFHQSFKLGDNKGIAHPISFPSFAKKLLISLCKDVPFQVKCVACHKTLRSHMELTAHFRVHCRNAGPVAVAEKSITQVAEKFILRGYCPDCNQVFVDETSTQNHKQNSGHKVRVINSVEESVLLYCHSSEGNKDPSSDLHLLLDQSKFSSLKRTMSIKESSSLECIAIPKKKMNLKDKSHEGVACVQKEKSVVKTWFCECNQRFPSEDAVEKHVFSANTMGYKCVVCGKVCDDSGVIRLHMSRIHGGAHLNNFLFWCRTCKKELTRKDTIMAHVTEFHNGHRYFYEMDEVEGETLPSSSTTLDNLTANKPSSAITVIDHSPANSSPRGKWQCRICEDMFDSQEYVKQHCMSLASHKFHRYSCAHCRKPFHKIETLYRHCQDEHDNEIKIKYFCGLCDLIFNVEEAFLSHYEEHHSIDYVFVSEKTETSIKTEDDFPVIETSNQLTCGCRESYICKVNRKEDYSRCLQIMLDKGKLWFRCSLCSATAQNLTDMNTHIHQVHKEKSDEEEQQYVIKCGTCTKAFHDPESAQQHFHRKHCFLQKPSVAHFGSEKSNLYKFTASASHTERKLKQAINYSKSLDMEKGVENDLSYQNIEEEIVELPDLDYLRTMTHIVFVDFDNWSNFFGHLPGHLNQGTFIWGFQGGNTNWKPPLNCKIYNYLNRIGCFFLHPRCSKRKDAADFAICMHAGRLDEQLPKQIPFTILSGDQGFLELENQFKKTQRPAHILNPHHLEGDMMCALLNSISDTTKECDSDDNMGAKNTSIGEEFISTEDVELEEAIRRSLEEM
# UniProt Q6WRX3: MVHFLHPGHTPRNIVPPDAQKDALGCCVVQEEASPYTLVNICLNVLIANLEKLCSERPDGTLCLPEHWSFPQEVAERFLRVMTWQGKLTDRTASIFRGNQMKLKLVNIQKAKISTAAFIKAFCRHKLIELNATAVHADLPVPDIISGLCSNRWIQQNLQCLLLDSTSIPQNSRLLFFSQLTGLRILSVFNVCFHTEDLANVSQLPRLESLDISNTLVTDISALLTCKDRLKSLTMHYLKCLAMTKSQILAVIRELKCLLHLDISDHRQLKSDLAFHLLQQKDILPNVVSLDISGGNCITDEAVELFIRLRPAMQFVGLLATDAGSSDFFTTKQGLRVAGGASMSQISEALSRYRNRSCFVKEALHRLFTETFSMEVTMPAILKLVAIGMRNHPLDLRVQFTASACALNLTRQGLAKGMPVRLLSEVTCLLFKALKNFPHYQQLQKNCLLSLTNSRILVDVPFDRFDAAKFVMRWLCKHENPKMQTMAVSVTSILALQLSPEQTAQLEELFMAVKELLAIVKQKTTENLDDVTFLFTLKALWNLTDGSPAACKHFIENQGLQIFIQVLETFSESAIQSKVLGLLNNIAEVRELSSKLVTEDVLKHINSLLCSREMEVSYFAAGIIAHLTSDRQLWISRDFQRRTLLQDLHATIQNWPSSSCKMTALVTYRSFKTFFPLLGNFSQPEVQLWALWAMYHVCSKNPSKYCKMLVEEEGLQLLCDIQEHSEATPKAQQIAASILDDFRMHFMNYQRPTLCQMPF
# UniProt Q8NB15: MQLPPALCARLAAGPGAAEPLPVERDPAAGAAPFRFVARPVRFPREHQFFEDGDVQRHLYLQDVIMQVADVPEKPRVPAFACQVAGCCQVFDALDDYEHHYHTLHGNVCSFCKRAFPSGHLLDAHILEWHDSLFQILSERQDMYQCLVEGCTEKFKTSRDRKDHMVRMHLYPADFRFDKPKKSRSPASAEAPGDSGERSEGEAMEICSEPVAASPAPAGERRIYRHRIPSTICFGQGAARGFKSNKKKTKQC
# UniProt Q7L3S4: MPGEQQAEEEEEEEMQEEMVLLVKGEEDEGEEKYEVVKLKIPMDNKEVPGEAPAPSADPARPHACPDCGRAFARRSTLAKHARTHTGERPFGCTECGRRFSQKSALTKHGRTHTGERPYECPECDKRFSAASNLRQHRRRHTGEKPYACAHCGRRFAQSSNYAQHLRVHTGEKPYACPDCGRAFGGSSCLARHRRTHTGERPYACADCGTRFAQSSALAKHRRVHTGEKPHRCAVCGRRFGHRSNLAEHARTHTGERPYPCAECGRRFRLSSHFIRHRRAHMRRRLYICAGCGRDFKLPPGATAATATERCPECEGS
# Compound: C1=CC=C(C=C1)[C@H](COC2=CC3=C(C=C2)NC(=O)N3)NC(=O)C4=CC=CN(C4=O)CC5=CC(=C(C=C5)F)F
# Assay: log2 fold change, soluble protein after heating vs DMSO (PISA); higher = thermal stabilisation; K562 lysate, 10 uM; active = over 0.2 and 3.5 SD of the protein, either way, in both replicates (recomputed)
# Outline: (§1)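 Thermal stability, expressed as log-two fold change relative to solvent controls, is given from duplicates. Crude K562 extract in PBS pH 7.4 with 1 mM MgCl2, at 1 mg/mL protein, was treated with 10 μM compound for 30 min and heated in aliquots for 3 min across 48°C-58°C. After pooling, adjustment to 0.5% NP-40 at 4°C and centrifugation at 21,000xg for 90 min, supernatant protein was measured by TMTpro 16plex LC-MS/MS with channel sums equalised.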
row,Target,log2 fold change
1,ZNF74 isoform 5 (UniProt Q16587),inactive: 0.079
2,ZNF316 (UniProt A6NFI3),inactive: -0.011
3,"ZNF654, A0A1B0GWA0",inactive: 0.044
4,ZNF280B (UniProt Q86YH2),inactive: -0.055
5,ZNF444 (UniProt Q8N0Y2),inactive: -0.153
6,ZNF669 (UniProt Q96BR6),inactive: 0.008
7,ZNF330 (UniProt Q9Y3S2),inactive: 0.033
8,ZWINT (UniProt O95229),inactive: 0.016
9,ZNHIT6 (UniProt Q9NWK9),inactive: 0.106
10,ZNHIT2 (UniProt Q9UHR6),inactive: -0.143
11,ZNF592 (UniProt Q92610),inactive: 0.103
12,ZNF574 isoform 2 (UniProt Q6ZN55),inactive: -0.058
13,ZNF239 (UniProt Q16600),inactive: -0.06
14,ZMYM4 (UniProt Q5VZL5),inactive: 0.133
15,ZW10 (UniProt O43264),inactive: -0.003
16,ZNF627 (UniProt Q7L945),inactive: 0.026
17,ZZEF1 (UniProt O43149),inactive: -0.022
18,ZNF346 (UniProt Q9UL40),inactive: 0.031
19,ZNF451 (UniProt Q9Y4E5),inactive: -0.038
20,ZNRF2 (UniProt Q8NHG8),inactive: 0.138
21,ZYG11A (UniProt Q6WRX3),inactive: -0.075
22,ZNF511 (UniProt Q8NB15),inactive: -0.014
23,ZKSCAN1 (UniProt P17029),inactive: 0
24,ZNF771 (UniProt Q7L3S4),inactive: 0.061
25,ZNF207 isoform 4 (UniProt O43670),inactive: 0.027

# Compound: CC1=C(SC2=C1C(=N[C@H](C3=NN=C(N32)C)CC(=O)N)C4=CC=C(C=C4)Cl)C
# Assay: as above
# Outline: as §1
row,Target,log2 fold change
1,ZNF74 isoform 5 (UniProt Q16587),inactive: -0.013
2,ZNF316 (UniProt A6NFI3),inactive: -0.012
3,"ZNF654, A0A1B0GWA0",inactive: -0.023
4,ZNF280B (UniProt Q86YH2),inactive: 0.053
5,ZNF444 (UniProt Q8N0Y2),inactive: 0.092
6,ZNF669 (UniProt Q96BR6),inactive: -0.005
7,ZNF330 (UniProt Q9Y3S2),inactive: -0.038
8,ZWINT (UniProt O95229),inactive: 0.042
9,ZNHIT6 (UniProt Q9NWK9),inactive: -0.063
10,ZNHIT2 (UniProt Q9UHR6),inactive: 0.119
11,ZNF592 (UniProt Q92610),inactive: 0.061
12,ZNF574 isoform 2 (UniProt Q6ZN55),inactive: -0.006
13,ZNF239 (UniProt Q16600),inactive: -0.041
14,ZMYM4 (UniProt Q5VZL5),inactive: -0.081
15,ZW10 (UniProt O43264),inactive: -0.011
16,ZNF627 (UniProt Q7L945),inactive: -0.029
17,ZZEF1 (UniProt O43149),inactive: -0.004
18,ZNF346 (UniProt Q9UL40),inactive: -0.017
19,ZNF451 (UniProt Q9Y4E5),inactive: 0.03
20,ZNRF2 (UniProt Q8NHG8),inactive: -0.442
21,ZYG11A (UniProt Q6WRX3),inactive: -0.13
22,ZNF511 (UniProt Q8NB15),inactive: 0.006
23,ZKSCAN1 (UniProt P17029),inactive: 0.052
24,ZNF771 (UniProt Q7L3S4),inactive: 0.065
25,ZNF207 isoform 4 (UniProt O43670),inactive: -0.009

# Reference: the supplement of paper PMC10849652
